# Data: article PMC4463457
# The chains behind the UniProt entries cited, without tags or fusion partners.
# UniProt P35462: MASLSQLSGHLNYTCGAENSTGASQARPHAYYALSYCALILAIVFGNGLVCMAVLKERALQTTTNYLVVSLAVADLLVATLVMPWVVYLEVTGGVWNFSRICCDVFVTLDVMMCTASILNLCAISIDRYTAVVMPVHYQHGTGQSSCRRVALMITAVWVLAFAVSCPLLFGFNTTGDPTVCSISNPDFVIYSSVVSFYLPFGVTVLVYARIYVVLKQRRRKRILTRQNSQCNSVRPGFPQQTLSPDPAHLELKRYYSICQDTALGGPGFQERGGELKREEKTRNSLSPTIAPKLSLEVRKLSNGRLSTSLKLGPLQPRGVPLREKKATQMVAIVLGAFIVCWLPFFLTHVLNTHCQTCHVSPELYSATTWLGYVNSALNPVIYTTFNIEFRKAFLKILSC
# These are yes or no findings as the source states them, for the method shown. In cells and extracts the contact can be indirect. Some binding calls cover weakened binding; strength is not graded here.
# Target: VSV-SNAP-hD3 (VSV- and SNAP-tagged human dopamine D3 receptor) (human) (UniProt P35462)
# Assay: FRET or BRET; htrFRET (Tag-Lite) on intact transfected HEK293T cells; SNAP-Lumi4-Tb 10 nM as donor and increasing concentrations of SNAP-Red as acceptor; hD3 and EGFR constructs at similar cell surface expression; emission at 665 nm after excitation at 337 nm
substance,measurement,value
VSV-SNAP-hD3 (VSV- and SNAP-tagged human dopamine D3 receptor) (from UniProt P35462 1-400),binding,binds
